Assay results from PubChem BioAssay AID1347423 (Functional Genomics Laboratory (NCATS/FGL), 2020).
Out of some 52,000 sequences screened, about 210 (0.4%) were called active.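 How the source made its calls: active means gene whose silencing raises cell survival under the drug, median off-target-corrected z-score across its silencing RNAs 2 or more; inactive means the rest.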 The list shows a part of the results.

Experiment: Resistance to Poly (ADP-Ribose) Polymerase inhibitor: Gene Identification via Genome-wide siRNA Screen
Settings: mouse BRCA2 R2336H ES cells, olaparib, CellTiter-Glo viability; hits give high values
Summary of the method: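 Mouse BRCA2 R2336H ES cells were reverse-transfected with siRNA (20 nM final), treated at 48 h with 500 nM olaparib, and read by CellTiter-Glo after 72 h. Scores: MAD-based z per siRNA, median per gene, seed off-target correction.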

Row | Sequence | z-score
1 | GGCGCAUAGGAAUGUGCUUTT against Mynn | inactive: -0.625
2 | GGAGACCUAAAGAUGAUCATT against Mmab | inactive: 0.19
3 | GCAUUGUGUGGUUUUGCCATT against Myog | inactive: 0.437
4 | CGACAAGCUGUACCUCUACTT against Rfx5 | inactive: -0.254
5 | GGCUUUAAAGAAUGAUUCATT against 4933411K20Rik | inactive: -0.0501
6 | GGAUAUGUCGGAAAAAGCCTT against Cfh | inactive: -0.27
7 | GGAUUUCAUUGGGUUUCUUTT against 2310001A20Rik | inactive: -0.427
8 | GCGACUGUGGUGGUUACAUTT against Bcas2 | inactive: -0.0243
9 | GUUGUGUUCUGAUUGUUUUTT against Olfr1020 | inactive: 0.0983
10 | GCUUCAUGAUGAAUCACCUTT against BC052328 | inactive: 1.05
11 | GGCUGACUUAUUUCAUUAATT against Dexi | inactive: 1.25
12 | GCCCGAAGUCCAUGAUAUUTT against Ppm1a | inactive: 0.809
13 | CGAGACACGUAGUGAAAGATT against Chrna5 | inactive: -1.59
14 | GGUGCUGAAUUUGAUCAAGTT against Rpa2 | inactive: -3.41
15 | GAAAUCGGCUCAGACAUUUTT against Ssbp2 | inactive: -0.456
16 | GCUACACACGAUUUCAUUCTT against Dolpp1 | inactive: 0.785
17 | GGAGUUUUAUGGACGAGGATT against 1110060M21Rik | inactive: 2.08
18 | GCCUUGUGACAGCAUUAGUTT against Slc6a13 | inactive: 0.566
19 | GGUUUUGUCCAGAAGAAUATT against Kl | inactive: 0.691
20 | GGCUUGUUUGAUGUUUGCATT against Ldh2 | inactive: 0.635
21 | GGGAUGGUUCCAUUACUUUTT against Rhcg | inactive: 2.3
22 | GGCUCUGGAUUACAUAGCCTT against Actn2 | inactive: -0.294
23 | CCCUAGCGGAAAUUGUCAATT against Nono | inactive: 0.00602
24 | CCACGUUACAACAUCACCUTT against Hdac11 | inactive: -0.249
25 | GGCUUGGAUCUUGAGCAGATT against Magea6 | inactive: -0.944
26 | CCCUUAUUGCUAGACCUAGTT against Map3k11 | inactive: -0.0454

Row | Sequence | z-score
27 | CCACCGACUUCUUUUACCCTT against Sephs2 | inactive: -0.299
28 | CCUCAUAGGCUUGACAAUUTT against Sec5l1 | inactive: -0.317
29 | CCUGGUUAUCCAUUAGUGGTT against Tatdn2 | inactive: -2.34
30 | GGCAAGAAAGUCAUUAGCUTT against Mocs2 | inactive: -0.567
31 | GGAGAAGAAGCUGGACCAGTT against Atp5o | inactive: 0.29
32 | CCGAUGUCUGAUAGUACAUTT against C3ar1 | inactive: -1.17
33 | GGGAAUAAAAAGGAUCACUTT against Rab39 | inactive: 0.657
34 | GGAUCAUAAAAAGAAUCACTT against Gpr21 | inactive: 0.833
35 | GGGAUUACCUCCAGACACATT against 0610010D24Rik | inactive: 1.42
36 | CCAGGUGAGGUUGCUUAACTT against Bri3bp | inactive: -0.234
37 | GGGUUGAAAAGAGGUGUCUTT against Cacng8 | inactive: -0.946
38 | CCCAGCAACUACUGGAAACTT against Tas2r139 | inactive: -0.186
39 | CCAGUCUUGCCCUUUAGUGTT against B130055A05Rik | inactive: -1.05
40 | GGACUUCCAGAGGUACUUGTT against V1re1 | inactive: 1.62
41 | GCAUUUGUGGCCUAUGCUCTT against 9130210N20Rik | inactive: 0.687
42 | GCUAGAAUACACCAUAGAGTT against A930012M17 | inactive: 1.4
43 | GGAUAUUCACUUUCAUAUGTT against Gulp1 | inactive: 0.648
44 | GGACAGUGAAGAGGAUUCCTT against 3200002M19Rik | inactive: -1.03
45 | GGUCCUGUGAGUCAUUUGATT against Mrps34 | inactive: -0.116
46 | GGUUGUGAAUGUAAGUGAGTT against Entpd1 | inactive: 0.934
47 | GGUUCCAUAACCUGUGUCATT against D1Ertd578e | inactive: -0.506
48 | CCGUCGUUUUGGCCAGUAATT against Tex101 | inactive: -1.56
49 | GCAUACCGGUGUGUCAGUGTT against Lamp1 | inactive: -1.26
50 | GGUAGAAGAUGAUUACAUCTT against Spock2 | inactive: 0.457
51 | GCAUCAAACACUAGGGCAATT against Gpr33 | inactive: -0.792
52 | GCAACACCAGAGUAUGUUATT against LOC238829 | inactive: -0.629

A second format for some results above.
CGACAAGCUGUACCUCUACTT against Rfx5
  z-score: inactive: -0.254
GGCUUUAAAGAAUGAUUCATT against 4933411K20Rik
  z-score: inactive: -0.0501

Additional records:

Row | Sequence | z-score
53 | GGUCCGAAAUGAGUUUUACTT against C330021A05Rik | inactive: 3.82
54 | GCGCGCAUUAACUACACGUTT against Zfp82 | inactive: -0.204
55 | GGAAGAGGAAUAUUACCAGTT against Marveld3 | inactive: 0.0116
56 | CGUAGGACAAAUUAUACCATT against Gria3 | inactive: -0.234
57 | GGUUUCAGAAAAUCAACCATT against 1700111A04Rik | inactive: 0.656
58 | CCCAAGGUACAUUUUUCAATT against Mab21l2 | inactive: -0.405
59 | GCUAACUGAUGCUAAAGGATT against Dnajd1 | inactive: -0.121
60 | CGAGUUAUUCUUGUUAUAGTT against V1rd13 | inactive: 0.816
61 | GGGCUAUAUGGAUUUAAUGTT against Txnl1 | inactive: -0.526
62 | GCAAUUUUAGUUGGUGGAATT against Ddx24 | inactive: -1.56
63 | CCGCUUGGGAUUAGCUAUGTT against Olfr543 | inactive: -0.0531
64 | CGGAACUACCGCUUCUUUUTT against Zdhhc18 | inactive: 0.786
65 | GGCAAUAAGCCCUUCACAATT against Pqlc2 | inactive: 1.02
66 | GCUAUAGAUUCCUCUGCCATT against Olfr1098 | inactive: -1.45
67 | GGUGGAGACUAAUCCAUUATT against A930014I12Rik | inactive: 0.0273
68 | GGAGCCAGGAAAAUUUAUGTT against Carm1 | inactive: -0.237
69 | GGAGCUGAUGGUUGAAUGUTT against Ehbp1 | inactive: -1.23
70 | GCUGUUAAAACUCUCGUUATT against Pdk3 | inactive: 0.651
71 | GCUCAUAAAACUCCAAAAGTT against Prei3 | inactive: -1.57
72 | GGAAAUCCUUACUAUGCAUTT against Enam | inactive: 1.08
73 | GGAAAGAAAUGAAUCAGUATT against Ubce7ip1 | inactive: -0.084
74 | CGACCAGCCAUGGUACAAATT against Ptprd | inactive: 1.79
75 | GGUGCUGCUGAGAUUUUUCTT against Pxt1 | inactive: -1.09
76 | GGCAAGUUUGAGUUUUAGUTT against D730019B10Rik | inactive: 0.161
77 | GGUACUUUUACUCCCGAAGTT against Lgals3bp | inactive: 1.25
78 | GGCAGAGUGCUGGAUUUGUTT against 4933409G03Rik | inactive: -0.148

Nos. 58–60, reprinted for reference:
Row | Sequence | z-score
58 | CCCAAGGUACAUUUUUCAATT against Mab21l2 | inactive: -0.405
59 | GCUAACUGAUGCUAAAGGATT against Dnajd1 | inactive: -0.121
60 | CGAGUUAUUCUUGUUAUAGTT against V1rd13 | inactive: 0.816

(list continues)

Row | Sequence | z-score
79 | GCCUCAAAUAUCGGGCCAUTT against Rapsn | inactive: 0.219
80 | CCAUGUAAGUUAUAAGUGUTT against Nxph1 | inactive: -0.638
81 | GGGAAUCGGACCAACUUACTT against Adssl1 | inactive: -0.784
82 | GGACUUCCCGAACUACAUATT against Zfp52 | inactive: -1.16
83 | GCAUAUUAGUGCUUUUCCCTT against Olfr78 | inactive: 1.12
84 | GGAAGAUUUCUUCACCGACTT against Ptf1a | inactive: 1.21
85 | GGCUCUGGCAUUAAUGAACTT against Vnn1 | inactive: 0.936
86 | GGCAGAUCUGAUCAACGGATT against 1500011K16Rik | inactive: 0.333
87 | GGACCAUCUCUUUGAUUGGTT against Olfr424 | inactive: 0.201
88 | GGCAGAUUACUCUGAAUGATT against Prdx4 | inactive: 0.89
89 | CGGAAUUUUAGGGAUAGGATT against Rcn1 | inactive: 0.867
90 | GGCACAUUGUGGUGUCUUGTT against Pycr1 | inactive: -1.35
91 | GCCGUGAAGAAAAUUUUGATT against Olfr270 | inactive: -0.0821
92 | GGACGCAAUGGUGUCUUCUTT against Adamts16 | inactive: -1.53
93 | GGAGACCUAGAUGCACUGATT against Arhgdig | inactive: 1.34
94 | GCUUCACAAGCAGUGUACUTT against Slc37a1 | active: 1.96
95 | GAUUUCAAGAUCCAGACUCTT against 2310007A19Rik | inactive: 0.42
96 | GGUGCAUAAUUUAAAGAUCTT against Za20d1 | inactive: 0.37
97 | CCCAUGACUUUAGAAUAGGTT against Kcnf1 | inactive: -0.49
98 | GCCUUACACCUGAAAUCGUTT against 3110003A22Rik | inactive: 0.856
99 | GCUGCUAAUGCUUGAUUAUTT against Il7r | inactive: -0.876
100 | GGAAAUUACAAGCUAGCAUTT against Dnajc7 | inactive: 0.0955
101 | CCCUUUACCCUACGCGUAUTT against Ifitm2 | inactive: -0.313
102 | GCUUGGAAGACUGUAAACUTT against 4921521K07Rik | inactive: 0.958
103 | GCUCGUUUUCUAUUGAAGUTT against Bre | inactive: 0.289
104 | GGGUAUUUUUUUGUGGCUUTT against Nsg2 | inactive: 0.729
